PubChem BioAssay AID1259260 – Sanger Institute, 2017
Shown is a random part of 794 reagents. Of all reagents, 13 (1.6%) got an active call. 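Calls reflect only knock-down without drug; synergy above 0.15 was grouped apart and does not change the call.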 Viability is capped at 1. Not all columns of the deposit are shown. Not given: the amount of reagent, the time to read-out.

Aim: 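Kinome knock-down with three anchor drugs to find synergy partners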 (primary screen)
System: human NCI-H716 colorectal cancer cells
Reagents: siRNA pool against human genes
Challenge: anchor drugs BYL719 (alpelisib) 1 µM, cetuximab 5 µg/ml or trametinib 10 nM, each at a dose chosen to harm viability only mildly; DMSO vehicle for the knock-down-alone arm
Measurement: 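Mean viability over replicates against non-targeting siRNA, robust z-score without drug, and per-drug synergy comparing combined with single treatments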
Direction: viability robust z-score, siRNA alone: higher = more surviving cells; below -3 called essential; viability vs control, no drug: higher = more surviving cells; synergy score with BYL719: higher = stronger synergy (synthetic lethality) with drug
Rule for the call: 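Essential when the robust z-score for knock-down alone falls below -3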
Meaning of the calls: active = essential (knock-down alone lowers viability); inactive = no essential effect

no.	Target gene	viability robust z-score, siRNA alone	viability vs control, no drug (fraction of control)	synergy score with BYL719	activity call
1	MAP2K7	-0.00279	0.937	-0.195	inactive
2	TGFBR3	0.602	1	-0.189	inactive
3	FBXW7	0.602	1	-0.0578	inactive
4	MAPK13	-0.484	0.887	-0.0789	inactive
5	SRP72	0.602	1	-0.241	inactive
6	NUCKS1	0.602	1	0.0277	inactive
7	PKIB	0.602	1	0.0166	inactive
8	AK7	-0.0734	0.93	-0.136	inactive
9	PBK	-0.376	0.898	-0.127	inactive
10	MARK3	0.602	1	-0.227	inactive
11	TRIM27	-0.119	0.925	-0.137	inactive
12	SF3B1	-4.21	0.5	-0.259	active
13	ALPK1	0.602	1	-0.0702	inactive
14	CAMK4	0.602	1	-0.283	inactive
15	CAMKK2	0.602	1	-0.0429	inactive
16	PKLR	0.602	1	-0.283	inactive
17	CDKL3	0.602	1	-0.283	inactive
18	CRKL	0.602	1	-0.283	inactive
19	PIK3R4	-0.157	0.921	-0.161	inactive
20	AURKB	-1.51	0.781	-0.125	inactive

Limited to “viability vs control, no drug (fraction of control)” (3 entries from above):
CDKL3 = 1
CRKL = 1
PIK3R4 = 0.921
